Experimental data: PubChem BioAssay AID1259280 (Sanger Institute, 2017)
Test: 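Kinome siRNA screen for partners that synergise with BYL719, cetuximab or trametinib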 (primary screen). Cell system: human SNU407 colorectal cancer cells. Knock-down reagent: siRNA pool against human genes. Conditions: anchor drugs BYL719 at 1 µM, cetuximab at 5 µg/ml or trametinib at 10 nM, or DMSO vehicle alone; exposure time not given. Read-out: 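Viability relative to non-targeting control siRNA, expressed as robust z-score, plus a synergy score for each of the three anchor drugs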. Reading the numbers: viability z-score, no drug: higher = more cells survive the knock-down. Rule for the call: 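Essential calls require a no-drug robust viability z-score under -3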. Calls: active = essential (knock-down alone kills cells); inactive = no change without drug.
Shown is one part, drawn at random, of 794 reagents. Of all reagents, 12 (1.5%) were called active. 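Calls cover knock-down without drug only; synergy scores stand apart, values above 0.15 being treated as synergy.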 Entries without a mark were called inactive. Not all columns of the deposit are shown. Not stated in the record: the amount of reagent, the time to read-out.

TK2 (GeneID 7084) → viability z-score, no drug = 0.901
PANK3 (GeneID 79646) → viability z-score, no drug = 0.901
RPS6KA4 (GeneID 8986) → viability z-score, no drug = 0.341
ACVR2B (GeneID 93) → viability z-score, no drug = -0.305
CDK18 (GeneID 5129) → viability z-score, no drug = -1.68
DTYMK (GeneID 1841) → viability z-score, no drug = 0.187
ADPGK (GeneID 83440) → viability z-score, no drug = -0.362

Sorted by “viability z-score, no drug” (high to low): some entries from above
ACVR2B (GeneID 93) → viability z-score, no drug = -0.305
CDK18 (GeneID 5129) → viability z-score, no drug = -1.68

Next reagents:
RPS6KA2 (GeneID 6196) → viability z-score, no drug = -1.21
EGFR (GeneID 1956) → viability z-score, no drug = -1.19
EPHA7 (GeneID 2045) → viability z-score, no drug = 0.901
TCF12 (GeneID 6938) → viability z-score, no drug = -0.493
TGFBR1 (GeneID 7046) → viability z-score, no drug = 0.901
EXOSC10 (GeneID 5394) → viability z-score, no drug = -1.1
PHKG2 (GeneID 5261) → viability z-score, no drug = 0.833
WT1 (GeneID 7490) → viability z-score, no drug = 0.0792
LMBR1 (GeneID 64327) → viability z-score, no drug = 0.76
NTRK2 (GeneID 4915) → viability z-score, no drug = 0.901
PXK (GeneID 54899) → viability z-score, no drug = 0.75
AURKA (GeneID 6790) → viability z-score, no drug = -5 (active)
